In the test the test system is A549. The experiment in a line: Cytotoxicity against human A549 cells after 24 hrs by MTT assay. Format: functional, cell-based. As to conditions: A549, 24 h. For orientation: Tetrazolium dyes change colour on reduction, which living cells bring about.

Broadly, the IC50 is the concentration at which inhibition is half-maximal. The low end stands for higher potency, the high end for lower potency. `COc1cccc2c1C(=O)c1c(O)c3c(c(O)c1C2=O)C[C@@](O)(C(=O)CO)C[C@@H]3O[C@H]1C[C@H](N)[C@H](O)[C@H](C)O1` [DOXORUBICIN] returned an IC50 of 800 nM.

These data come from ChEMBL document CHEMBL3600372, “Scapairrins A-Q, Labdane-Type Diterpenoids from the Chinese Liverwort Scapania irrigua and Their Cytotoxic Activity” (J Nat Prod, 2015).
